We go through 1 substance from PMC9649702.

Amino acid sequences for entries named in this document (tags omitted). A change or cut given only in a name is not applied to a line headed by its entry.
UniProt Q6IAA8: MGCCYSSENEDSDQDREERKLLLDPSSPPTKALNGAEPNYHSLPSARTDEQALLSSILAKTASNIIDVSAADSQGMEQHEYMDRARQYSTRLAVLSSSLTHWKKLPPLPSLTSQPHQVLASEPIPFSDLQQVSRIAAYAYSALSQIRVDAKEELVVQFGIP
UniProt Q8NFG4: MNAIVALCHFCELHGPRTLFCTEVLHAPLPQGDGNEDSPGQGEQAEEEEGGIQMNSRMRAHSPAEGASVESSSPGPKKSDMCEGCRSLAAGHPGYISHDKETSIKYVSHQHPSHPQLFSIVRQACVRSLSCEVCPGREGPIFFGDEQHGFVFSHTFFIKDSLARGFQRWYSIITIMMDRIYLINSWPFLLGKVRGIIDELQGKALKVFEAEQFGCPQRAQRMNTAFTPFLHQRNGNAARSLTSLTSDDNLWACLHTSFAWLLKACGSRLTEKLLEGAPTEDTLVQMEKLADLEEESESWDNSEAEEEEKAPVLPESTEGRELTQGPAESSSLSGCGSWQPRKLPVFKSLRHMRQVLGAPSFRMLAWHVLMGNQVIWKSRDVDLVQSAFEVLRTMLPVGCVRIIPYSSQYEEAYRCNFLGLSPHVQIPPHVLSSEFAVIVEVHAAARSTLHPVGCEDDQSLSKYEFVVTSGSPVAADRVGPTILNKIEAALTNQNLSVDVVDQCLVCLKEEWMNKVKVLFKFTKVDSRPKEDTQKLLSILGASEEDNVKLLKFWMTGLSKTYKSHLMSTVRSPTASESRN

No constants are given. Whether binding was seen depends on the method and setting. Binding seen in cells or lysates may run through a third protein. Some binding calls cover weakened binding; strength is not graded here.

For this assay, the target named is Lamtor1-GFP (UniProt Q6IAA8). Put plainly: co-IP; Lamtor1-GFP precipitated with GFP-Trap magnetic agarose beads (binding control beads beside it) from lysates of WT and TSC2 KO HEK293T cells, fed or amino-acid-starved for 1 or 3 h; DMSO, rapamycin (200 nM) or torin (1 uM) for 1 h before starvation; immunoblotting.

On to “FLCN:FNIP2 complex (endogenous) (from UniProt Q8NFG4 1-579; Q9P278 1-1114)”, for which the binding entry was “binds”.
